From patent US20160046678A1 (ZYNGENIA, published 2016)
These are yes or no findings as the source states them, for the method shown. Some binding calls cover weakened binding; strength is not graded here.

Amino acid sequences for entries named in this document (tags omitted). Residues count along the entry.
UniProt P05231, residues 30-212: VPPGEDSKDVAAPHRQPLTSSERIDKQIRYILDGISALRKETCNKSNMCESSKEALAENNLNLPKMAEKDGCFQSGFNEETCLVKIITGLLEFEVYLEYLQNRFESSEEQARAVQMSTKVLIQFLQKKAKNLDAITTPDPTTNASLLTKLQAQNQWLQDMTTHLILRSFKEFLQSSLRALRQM

B1: ILB680 (peptide)
peptide: YYQGFPWFQIGQAGQGSATGGSSFNEDCMWDPLLMDCAYSPGGGSYYQGFPWFQIGQAGQGSATGGSSFNEDCMWDPLLMDCAYSPGGGSYYQGFPWFQIGQAGQGSATGGSSFNEDCMWDPLLMDCAYSP
B2: ILB681 (peptide)
peptide: YYQGFPWFQIGQAGQGSATGGSSFNEDCMWDPLLMDCAYSPGGGSYYQGFPWFQIGQAGQGSATGGSSFNEDCMWDPLLMDCAYSP

Target: IL6 (UniProt P05231)
Assay: MRD identification, Example 48

binding, binds:
FNEDCMWDPLLMDCAYSPGQGSATGGSAAGDGSIEHHGAWSAQ [ILB797], PGLRCPWDPLMMTCVAHP [ILB768], FNEDCMWDPLLMDCAYSPGRGSSLGGVSPPIVSGRASA [ILB791], FNEDCMWDPLLMDCAYSPGQGSAAGGGSIVQHQPSRMY [ILB774], VQLYCIWDPLMMDCGQRS [ILB772], EYSSCNWDPLLMQCQRVV [ILB741], YTKHCQRLPTYKICNLFM [ILB752], FNEDCMWDPLLMDCAYSPAGGGSFVGESQYMQTK [ILB787], FNEDCMWDPLLMDCAYSPGQGSATGGSGSTASAAGGGSRVRLDHWEQV [ILB794], EIEQCWWDPMLMEGVCWPSI [ILB760], QFPYESPPSIGQAGQGSATGGSSFNEDCMWDPLLMDCAYSP [ILB678], B1, FNEDCMWDPLLMDCAYSPGQGSAAGGGSQFPYESPPSI [ILB781], MSVSCNWDPLLMTCRLPT [ILB767], HRAPCFSCTACRQPCFSLT [ILB776], GEAWCWDPIRMDVRVCSVFI [ILB739], GLHGCQYVQMFFHFCAPKT [ILB799], PGVACFWDPLLMSCSYDE [ILB757], FNEDCMWDPLLMDCAYSPAGGSALRMCDSWVENRCLG [ILB778], LYPSCPWDPILMQCSALK [ILB763], RLGACVWDPLMMQCAWIS [ILB762], FNEDCMWDPLLMDCAYSPGQGSATGGSAAGGGSECELDYHMVWCK [ILB784], PTPLCHWDPLLMHCTASD [ILB764], CRNSCHWDPLIMDCMQEM [ILB773], SVSPCIWDPLLMMCGNYS [ILB743], FNEDCMWDPLLMDCAYSPGQGSATGGSGSTASAAGGGSQPWRHNMQKI [ILB788], FNEDCMWDPLLMDCAYSPGQGSAAGGGSPCRFWPGRAFCH [ILB783], TPHPCHWDPMIMYCMLEM [ILB749], TSHPCWWDPIMMSCWLEE [ILB771], FNEDCMWDPLLMDCAYSPGQGSATGGSGSTASAAGGGSQFPYESPPSI [ILB789], GDDWCAWDPIRMQCSYTK [ILB759], HTANCPWDPLIMNCSFQS [ILB751], FNEDCMWDPLLMDCAYSPAGGGSIWQTEVIVPD [ILB793], QWLHCFWDPLMMKCVTVS [ILB748], RWNVCAWDPLLMQCASAP [ILB766], FNEDCMWDPLLMDCAYSPGQGSAAGGGSHPWRHNMQKI [ILB780], FHSTCFWDPLLMRCVSAP [ILB742], HEEDCWWDPLIMQCFNRT [ILB750], FNEDCMWDPLLMDCAYSPGQGSAAGGSPVLGCRNVHNTQCRLWFQG [ILB798], SPQECPWDPIAMKCAFVR [ILB770], HSRWCYWEPIRMIEMCMGDK [ILB756], FNEDCMWDPLLMDCAYSPGQGSAAGGGSFWMQQAQQHK [ILB785], VSAECYWDPLMMQCSTDM [ILB745], ANSWCHTLYWQLHHCEILE [ILB792], B2, QIAFCLWDPLLMDCTVQT [ILB769], ADSWCHTLYWQLQHCLSQE [ILB755], TDSWCHTLYWQLHHCAILE [ILB765], FNEDCMWDPLLMDCAYSPAGGGSICQATPYSPWCR [ILB775], FNEDCMWDPLLMDCAYSPGQGSAAGGGSKCDWQPWFCP [ILB786], PDSWCHTLYWQLIHCERQE [ILB677], FNEDCMWDPLLMDCAYSPAGGGSVCPTQPANCQ [ILB782], FGDTCFWHPFNEDMCESKP [ILB747], FNEDCMWDPLLMDCAYSPGQGSAAGGSAQWQCHINPTGMACVDMLQG [ILB779], VGVDCPWDPLMMECAGRN [ILB744], GPYSCPWDPMKMECAYSP [ILB740], HGRSCAWDPLKMDCVWYH [ILB761], RAFTCPWDPLIMDCAGAS [ILB758]
